Values from PubChem BioAssay AID1053209 (Peter MacCallum Cancer Centre, 2014)

Assay: 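Gene losses that combine with doxorubicin to kill mouse bone cancer cells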 (follow-up of hits)
System: mouse primary osteosarcoma cells
Reagent: single siRNA against mouse genes, 25 nM (text also states 40 nM)
Time to read-out: about 120 h (48 h before drug, then 72 h with drug)
Conditions: doxorubicin 100 nM (about IC30-40), added 48 h after transfection, for 72 h
Measured: 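ATP-based luminescent viability, with or without doxorubicin, relative to non-targeting control NT1, mean of two replicates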
Direction: viability with doxorubicin, vs NT1: higher = more viable cells under doxorubicin; viability without drug, vs NT1: higher = more viable cells without drug
Active means: 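Counted as active (class LC dox) if viability falls to 0.7 of NT1 or below under doxorubicin but stays within 0.7 to 1.1 without drug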
The whole screen tested about 1,580 reagents; shown is a random part of them. 207 of them (13%) count as active. 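Rows are single siRNAs; four siRNAs per gene were tested, a gene counting as confirmed only when at least two agree.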 The numbers tell different reagents against one gene apart. Not all columns of the deposit are shown.

Ran #1 | combined effect class: low viability with and without drug; viability with doxorubicin, vs NT1: 0.1; viability without drug, vs NT1: 0.37; activity call: inactive
Ran #2 | combined effect class: low viability with and without drug; viability with doxorubicin, vs NT1: 0.1; viability without drug, vs NT1: 0.36; activity call: inactive
Ran #3 | combined effect class: low viability with and without drug; viability with doxorubicin, vs NT1: 0.06; viability without drug, vs NT1: 0.4; activity call: inactive
Ran #4 | combined effect class: low viability with and without drug; viability with doxorubicin, vs NT1: 0.12; viability without drug, vs NT1: 0.29; activity call: inactive
Rpl32 #1 | combined effect class: low viability with and without drug; viability with doxorubicin, vs NT1: 0.44; viability without drug, vs NT1: 0.52; activity call: inactive
Rpl32 #2 | combined effect class: low viability with and without drug; viability with doxorubicin, vs NT1: 0.18; viability without drug, vs NT1: 0.22; activity call: inactive
Rpl32 #3 | combined effect class: low viability with and without drug; viability with doxorubicin, vs NT1: 0.3; viability without drug, vs NT1: 0.62; activity call: inactive
Rpl32 #4 | combined effect class: low viability with and without drug; viability with doxorubicin, vs NT1: 0.22; viability without drug, vs NT1: 0.34; activity call: inactive
Rps29 #1 | combined effect class: low viability with and without drug; viability with doxorubicin, vs NT1: 0.24; viability without drug, vs NT1: 0.29; activity call: inactive
Rps29 #2 | combined effect class: low viability with and without drug; viability with doxorubicin, vs NT1: 0.16; viability without drug, vs NT1: 0.33; activity call: inactive
Rps29 #3 | combined effect class: low viability with and without drug; viability with doxorubicin, vs NT1: 0.13; viability without drug, vs NT1: 0.24; activity call: inactive
Rps29 #4 | combined effect class: low viability with and without drug; viability with doxorubicin, vs NT1: 0.32; viability without drug, vs NT1: 0.39; activity call: inactive

The list goes on; the last 2 above are carried over.
Rps29 #3 | combined effect class: low viability with and without drug; viability with doxorubicin, vs NT1: 0.13; viability without drug, vs NT1: 0.24; activity call: inactive
Rps29 #4 | combined effect class: low viability with and without drug; viability with doxorubicin, vs NT1: 0.32; viability without drug, vs NT1: 0.39; activity call: inactive
Eftud2 #1 | combined effect class: low viability with and without drug; viability with doxorubicin, vs NT1: 0.26; viability without drug, vs NT1: 0.43; activity call: inactive
Eftud2 #2 | combined effect class: low viability with and without drug; viability with doxorubicin, vs NT1: 0.48; viability without drug, vs NT1: 0.62; activity call: inactive
Eftud2 #3 | combined effect class: low viability only with doxorubicin; normal without drug; viability with doxorubicin, vs NT1: 0.52; viability without drug, vs NT1: 0.72; activity call: active
Eftud2 #4 | combined effect class: low viability with and without drug; viability with doxorubicin, vs NT1: 0.41; viability without drug, vs NT1: 0.41; activity call: inactive
Fau #1 | combined effect class: low viability with and without drug; viability with doxorubicin, vs NT1: 0.32; viability without drug, vs NT1: 0.36; activity call: inactive
Fau #2 | combined effect class: low viability with and without drug; viability with doxorubicin, vs NT1: 0.51; viability without drug, vs NT1: 0.68; activity call: inactive
Fau #3 | combined effect class: low viability with and without drug; viability with doxorubicin, vs NT1: 0.5; viability without drug, vs NT1: 0.66; activity call: inactive
Fau #4 | combined effect class: low viability with and without drug; viability with doxorubicin, vs NT1: 0.57; viability without drug, vs NT1: 0.6; activity call: inactive
Rpl6 #1 | combined effect class: low viability with and without drug; viability with doxorubicin, vs NT1: 0.36; viability without drug, vs NT1: 0.56; activity call: inactive
Rpl6 #2 | combined effect class: low viability with and without drug; viability with doxorubicin, vs NT1: 0.27; viability without drug, vs NT1: 0.52; activity call: inactive
Rpl6 #3 | combined effect class: normal viability with and without drug; viability with doxorubicin, vs NT1: 1; viability without drug, vs NT1: 0.94; activity call: inactive
Rpl6 #4 | combined effect class: low viability with and without drug; viability with doxorubicin, vs NT1: 0.26; viability without drug, vs NT1: 0.4; activity call: inactive
